Laboratory results taken from patent US20040253665A1, “Novel peptide-producing enzyme, microbe producing the enzyme and method for dipeptide synthesis using them” (AJINOMOTO CO., INC., priority 2002, published 2004).
Not every detail of the peptide structures is certain; ends, links or a residue may be inferred.

What was measured:
[1] = system: peptide-producing enzyme (Mono S fraction) from Empedobacter brevis strain FERM BP-8113; assay: Enzyme substrate specificity (1)-(10), (13), (14); type: biochemical; conditions: L-amino acid ester 100 mM, amino acid or peptide amine component 150 mM, pH 9.0, 25° C., 3 hours
Source text: Ester specificity was examined in the case of using L-amino acid ester for the carboxy component. […] The amounts of L-Ala-L-Gln produced in this reaction are shown in Table 4 (HCl represents hydrochloride in Table 4). Peptide production was examined in the case of using L-alanine methyl ester for the carboxy component and using various L-amino acids for the amine component. […] (The “+” mark indicates those peptides for which production was confirmed but which were unable to be quantified due to the absence of a standard, while “tr” indicates a trace amount.) Peptide production was examined in the case of using various types of L-amino acid methyl esters for the carboxy component and using L-glutamine for the amine component. […] (The “+” mark indicates those peptides for which production was confirmed but which were unable to be quantified due to the absence of a standard.) […] […] Substrate specificity was additionally assessed using the same enzyme fraction as that used in Example 5. […] (A “+” mark indicates those for which production was confirmed but which were unable to be quantified due to the absence of a standard, while “tr” indicates a trace amount). Substrate specificity with respect to oligopeptide production was assessed using the same enzyme fraction as Example 26. […]

[2] = system: enzyme (SP-Sepharose HP fraction) derived from Sphingobacterium sp. strain FERM BP-8124; type: biochemical; conditions: Table 16, oligopeptide production; carboxy component 100 mM, amine component 150 mM, 0.33 units enzyme, pH 9.0, 25° C., 1.5 hours
Experimental: Substrate specificity was examined for enzyme derived from Sphingobacterium sp. strain FERM BP-8124 (Depositary institution: National Institute for Advanced Industrial Science and Technology, International Patent Organism Depositary, Address of depositary institution: Central. 6, 1-1-1 Higashi, Tsukuba City, Ibaraki Prefecture, Japan, International deposit date: Jul. 22, 2002). 100 μl of 100 mM borate buffer (pH 9.0) containing the various carboxy components at a final concentration of 100 mM and the various amine components at a final concentration of 150 mM shown in Tables 15-1 to 15-4, the SP-Sepharose HP fraction enzyme purified in Example 22 (addition of 0.33 units in the reaction liquid) and 10 mM EDTA were allowed to react at 25° C. for 1.5 hours. […] In addition, hydrochlorides were used for all carboxy components.
Substrate specificity with respect to oligopeptide production was examined for enzyme derived from Sphingobacterium sp. strain FERM BP-8124 (Depositary institution: National Institute for Advanced Industrial Science and Technology,.International Patent Organism Depositary, Address of depositary institution: Chuo Dai-6, 1-1 Higashi 1-Chome, Tsukuba-shi, Ibaraki-ken, Japan, International deposit date: Jul. 22, 2002). […]

Structure (SMILES): C[C@H](N)C(=O)N[C@@H](C)C(=O)N[C@@H](C)C(=O)N[C@@H](C)C(=O)N[C@@H](C)C(=O)O [L-Ala-L-Ala-L-Ala-L-Ala-L-Ala]
- Produced peptide [1]: 34.8 mM
- Produced peptide [2]: 22.8 mM
